Laboratory results from the supplement of paper PMC3334620.
In all, about 33,000 sequences were measured (“E-score (-0.5 to 0.5)”: median about -0.015, highest 2% from about 0.3 on). The list shows a part of the results.

Target: T1, Abf1 (UniProt P14164)
T1 sequence: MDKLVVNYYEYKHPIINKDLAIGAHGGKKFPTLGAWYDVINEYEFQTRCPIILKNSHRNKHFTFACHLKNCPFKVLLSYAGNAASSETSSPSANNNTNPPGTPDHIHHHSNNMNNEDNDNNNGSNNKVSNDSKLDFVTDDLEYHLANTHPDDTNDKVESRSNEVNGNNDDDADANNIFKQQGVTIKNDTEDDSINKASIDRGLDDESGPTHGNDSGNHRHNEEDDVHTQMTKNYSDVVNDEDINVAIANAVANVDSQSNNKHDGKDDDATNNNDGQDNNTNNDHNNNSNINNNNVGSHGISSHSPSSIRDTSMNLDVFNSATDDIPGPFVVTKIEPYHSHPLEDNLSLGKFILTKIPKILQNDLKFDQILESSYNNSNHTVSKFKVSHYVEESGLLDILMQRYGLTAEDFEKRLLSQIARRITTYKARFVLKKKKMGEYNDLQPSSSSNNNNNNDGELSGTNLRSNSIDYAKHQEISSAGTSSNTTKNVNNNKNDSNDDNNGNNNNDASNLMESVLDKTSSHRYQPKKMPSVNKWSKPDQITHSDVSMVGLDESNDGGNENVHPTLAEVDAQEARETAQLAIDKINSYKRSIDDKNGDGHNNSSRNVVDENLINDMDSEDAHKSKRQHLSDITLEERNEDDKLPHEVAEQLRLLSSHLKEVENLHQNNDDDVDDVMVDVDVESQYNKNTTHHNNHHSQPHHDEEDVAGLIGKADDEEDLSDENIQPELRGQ
Assay: PBM E-score (8-mer binding enrichment) (E-score (-0.5 to 0.5)); higher = stronger / more preferred TF binding
Settings: protein concentration: 200 nM; construct: GST-full length
Summary of the method: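 Yeast transcription factors carrying a GST tag, as full-length proteins or DNA-binding domains, were produced by PURExpress in vitro transcription/translation. About 100-200 nM protein was applied to universal all-10-mer Agilent arrays, double-stranded by primer extension on fresh or once-stripped slides. Bound protein was detected with fluorescent anti-GST, and scans were normalised with masliner. The Universal PBM Analysis Suite gave each ungapped eight-base word, pooled with its reverse complement, an E-score, a modified Wilcoxon-Mann-Whitney statistic.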

Sequence	PBM E-score
ATGTCTCG	0.108
AGAACCTA	-0.176
GACGCAAA	-0.0787
GCTGACTA	0.0276
TAATATAA	0.196
GAAGCGCC	-0.011
ACTATGCA	0.171
TAGCTTAA	0.0853
CCCGCCCC	-0.0886
ATCACTAA	0.359
CCATGCGA	-0.0106
AAGAATCC	0.0253
CTGATCGC	-0.0561
AATGAGTG	0.105
ATGCGGTC	0.0961
ACATCTCG	0.0983
AGGCATTC	-0.299
CCTGCTAG	-0.276
AAGGATGC	-0.213
GAGTACCA	0.0748
AGGTGTAC	-0.093
AGTTCCAT	0.0271

A stretch from the list above:
Sequence	PBM E-score
GCTGACTA	0.0276
TAATATAA	0.196
GAAGCGCC	-0.011
ACTATGCA	0.171
TAGCTTAA	0.0853
CCCGCCCC	-0.0886
ATCACTAA	0.359
CCATGCGA	-0.0106
AAGAATCC	0.0253
CTGATCGC	-0.0561
AATGAGTG	0.105
ATGCGGTC	0.0961
ACATCTCG	0.0983
AGGCATTC	-0.299
CCTGCTAG	-0.276
AAGGATGC	-0.213

(next part)

Sequence	PBM E-score
AAACACCT	0.0682
TATCGTGA	0.286
TTAGACAA	0.0757
GGCGTCTA	-0.164
GGTTGTGA	0.0663
AAGATGTG	-0.079
ACGCCCAC	-0.202
GGACTACC	-0.163
TCCAAAGA	0.0107
CTACTGAG	-0.126
CCTCAATA	-0.158
ATTACTGA	-0.0334
ACGCACCG	-0.0403
CGTTGCGA	0.0828
GCGCTGAA	-0.0272
ATGACCTG	0.0895
AAGAAAAA	-0.0775
CAGTTCAA	0.0538
AACCAAAA	-0.00183
ATTTCTAG	0.0967
ACCCAGGA	-0.235
CCCACATA	-0.154

Sequence	PBM E-score
TCTTTGAA	-0.0383
CACTATCA	0.0851
GAACAAAA	0.226
TAGGCTAA	-0.169
GTAGTGAA	0.0467
CCAGCACA	-0.0686
CGCTCCGC	-0.157
AATCTGCA	-0.185
CACAAGTG	-0.156
CACGCGAA	0.0899
AGAGGTAT	0.189
ATGATCGG	0.0902
ACGGTTAA	0.0312
GTGTATGA	0.00583
ATCCTTTA	0.139
ATTTATGA	0.229
GACGTAAC	-0.0819
GTGTAGGA	0.0283
AGATTGAC	0.143
CGTTTGAC	-0.015
AAATTATC	0.264
GAAGGATA	-0.147

Sequence	PBM E-score
AGCAGAAG	-0.199
ACAGGCGC	-0.267
GCGGGTTA	0.00545
TCGTATCA	0.331
GAGCGCAA	-0.171
CCGCGAGA	-0.0337
CGAGTCAC	-0.0274
ATTGGGTC	-0.149
CTAGCTAA	-0.0545
ACCGCTCG	-0.161
GTTGAGTA	0.103
CCCAGAAC	-0.144
AGCGCGAC	-0.0745
ATTTCTAA	0.0446
CCATAACA	0.0579
AGTCTTAA	-0.0694
ATTCGGCA	0.0145
CATCAAGC	0.0311
AGTCCAGC	-0.128
AATCCTAC	-0.0455
